Test results reported in the supplement of paper PMC11237882.
Some of the results follow. Values are worked out from sequencing counts and are noisy.

T1: Homer1 EVH1 domain
T1 chain: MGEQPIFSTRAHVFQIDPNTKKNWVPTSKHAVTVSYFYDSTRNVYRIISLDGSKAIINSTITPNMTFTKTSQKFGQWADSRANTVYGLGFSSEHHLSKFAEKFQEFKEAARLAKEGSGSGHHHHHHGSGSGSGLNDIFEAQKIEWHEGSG


Molecular target: T1, Homer1 EVH1 domain
Assay: enrichment score (AUC of log2 frequency ratio across FACS sorting rounds) (log2 AUC); higher = stronger enrichment for Homer1 EVH1 binding

Binder	enrichment score
AVFFATYLTLACCSGPRRHFPWNLILLTVFTLSMAY	0.149
TVDYSDNLTRLCLGLSAVFLCGAAANAIRVYLMQTS	2.42
HVAVIINYLGHCISLVALLVAFVLFLRLRSIRCLRN	2.56
ALNPLNILGINFLGRRLSLSITMGCTALFFLLLNIC	1.27
LLSGERLDTWICSLLGSLMVGLSGVFPLLVIPLEMG	-2.54
EFQAPFGMEAEYAHPLETLILGTGFFIGIVLLCDHV	2.16
RGSLIALCISNLFFMLPWQFAQFVLLTQIASLFAVY	2.72e-05
REVARDWLRVGSVLDKLLFHIYLLAVLAYSITLVML	0.747
TQDRFSPDLLGLQASSALAWLTLEVLAILLSLYLVN	4.27
PGNKENNSNMVGTVLMLFLITLLYAAINFSCWSAVK	3.86
IGVDGGKNISYAGCLSQLFIFTFLGATECFLLAAMA	2.23
TSGPEAILPRRLPKVFKRQRTTSELFSVFPVLLFLN	0.697
NFVQYACFGLFGIIALQTIAYSILWDLKFLMRNLAL	1.93
FYNPVVPEAQKREMGAGLYVGWAAAALQLLGGALLC	2.93
MKAMPWNWTCLLSHLLMVGMGSSTLLTRQPAPLSQK	-1.23
FQTLEEVPDYVKKATPFFISLMLLELVVSCILKGKP	3.24
GDEPLPYQPTFSDDWQLPEPSSQAPLGYQDPVSLRP	1.6
ILGTAVALFLGMCVVHNFKGTQGSPSKPKPEDPRGV	1.13
MWLPRFSSKTVTVLLLAQTTCLLLFIISRPGPSSPA	2.37
MRPLPGALGVAAAAALWLLLLLLPRTRADEHEHTYQ	3.38
ILGNTIFASFVGITKVVPILLAAASLVGGGLIALRL	2.53
SRLSDPQVWVDAGTQIFFSYAICLGCLTALGSYNNY	-0.486

Binder	enrichment score
MESPNRTTIQEFIFSAFPYSWVKSVVCFVPLLFIYA	1.11
VNKSVLTNYRFPSSLCVGLGQMVATVAVLWVGKALR	2.09
PPPLFHEGAPYPPPLFIRDTYNQSIPQPPPRKIKRP	5.44
TIEMPQQARQKLQNLFINFCLILICLLLICIIVMLL	-2.27
DLITCHLALVHLVMLLTVSFLASPDLFESQYFQNDF	-0.594
KKLKLGARESAKLAMICSGVSLLCFSTLFIVGCESI	2.83
QTNLGFIHAFVAAISVIIVSELGDKTFFIAAIMAMH	-0.671
HSSLYLGILNAIAMIGPIIGFTLGSLFSKMYVDIGY	0.761
MALPFALLMALVVLSCKSSCSLDCDLPQTHSLGHRR	3.9
NKTTYENWREIHHLVFHVANICFAVGLVIPTTLHLH	-0.264
EEPSTSVPPTASEVPSTSLPPTPGEGTSTSVPPTAY	1.5
NSLKNVLNILIVYMLFMFIFAVIAVQLFKGKFFYCT	0.996
HLQPVPEPETVLKNQEVEFGRNRERLQFFKWSSRVF	-4.81
RVGRTMHHFGYLLLVSGLTTSAAFYASYLSRLPAVC	3.61
HGEGSDTVTPSRAFAWFVTVFISGIVSAAILAVFKY	1.84
GALWLGVLRLLLFKLLLFDLLLTCSCLCDPAGPLPS	1.33
HLILLAIMTITFAVCSLPFTIFAYMNETSSRKEKWE	2.46
MCSRVPLLLPLLLLLALGPGVQGCPSGCQCSQPQTV	1.68
TQEGWVDVMDQTLNAVGHMWAPVVAIYFILYHLFAT	3.98
VLWVLVIVPYLYSTFVSLFLTIKRRREGKTDYYARK	0.89
PPQLFASAAAAPCPLRGFLPPPPRLFITPAAFCPRR	2.74
EGLVISVGGFSLLCILCGLGFVSLAMSGMMIASYVV	1.74
